This is one part of the list. Single values are uncertain here, since repeats match poorly.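 Cells: ReNCell VM human fetal ventral-midbrain neural progenitors, differentiated mitogen-free. Blinded raters compared doublecortin-stained (early neurons) or tyrosine hydroxylase-stained (dopaminergic neurons) images with untreated wells, where 0 means no change. After repeats and both raters were averaged, compounds scoring 2 or above became hits for retesting.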
System: ReNCell VM
Assay: dopaminergic neuron differentiation score (TH+ cell fraction vs untreated, manual image score) (score (0 to 3)); higher = more TH+ dopaminergic neuron differentiation
Conditions: library: Phytochemical; 2 uM; 4 weeks; BDNF 10 ng/ml + GDNF 10 ng/ml

Dopaminergic neuron differentiation score, inactive:
O=C(O)[C@H]1O[C@@H](Oc2cc3oc(-c4ccccc4)cc(=O)c3c(O)c2O)[C@H](O)[C@@H](O)[C@@H]1O [Baicalin] 0
C=C1C[C@@]23CC[C@H]4[C@@](C)(CCC[C@@]4(C)C(=O)O[C@@H]4O[C@H](CO)[C@@H](O)[C@H](O)[C@H]4O)[C@@H]2CC[C@]1(O[C@@H]1O[C@H](CO)[C@@H](O)[C@H](O)[C@H]1O[C@@H]1O[C@H](CO)[C@@H](O)[C@H](O)[C@H]1O)C3 [Stevioside] 0
CC[N+]1(C)C2CCC1CC(OC(=O)C1CCC(C(=O)OC3CC4CCC(C3)[N+]4(C)CC)(c3ccccc3)c3ccccc31)C2 (stereo not drawn) [beta- Belladonnine dichloroethylate] 0

— the supplement of paper PMC4635364
